Source: the supplement of paper PMC12889115
The list shows a part of the results. Values are raw readings; no control value is given beside them.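 Primary screen: polymyxin B was added at a level permeabilizing Salmonella outer membranes while sparing inner membranes. DMSO wells, both with and without polymyxin B, established maximum growth. Plate-to-plate variation meant each plate was ranked on its own, and the lowest-OD600 compounds were selected as hits.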

Tested on: Salmonella enterica serovar Typhimurium SL1344
Test: bacterial growth OD600 after 18 h with compound and polymyxin B; higher = more bacterial growth (less inhibition)
Conditions: 50 µM, Mueller-Hinton broth

Row | Structure (SMILES) | bacterial growth OD600 (polymyxin B 1 µg/mL) | bacterial growth OD600 (polymyxin B 0.75 µg/mL)
1 | O=C(NC1CC(=O)N(Cc2cccc(F)c2)C1)C1CCCCC1 (stereo unspecified) | 0.916 | –
2 | CCN1CCCC1CNC(=O)CCC1CCN(C(=O)c2ccnc(Cl)c2)CC1 (stereo unspecified) | – | 0.878
3 | COc1cc(C(=O)NCCc2ncccc2C)ccc1OC1CCN(C(C)=O)CC1 | 0.946 | –
4 | O=C(CC1CCCC1)Nc1cccc(N2CCC(NCC(c3ccccn3)N3CCOCC3)CC2)c1 (stereo unspecified) | – | 0.849
5 | COc1cccc(CN2CCCC(c3[nH]ncc3CC(C)C)C2)c1O (stereo unspecified) | – | 0.888
6 | CC(C)n1cc(C(=O)NCc2cccnc2N(C)C2CCCCC2)cn1 | – | 0.527
7 | Cc1cccc(C)c1Oc1ncccc1CNS(=O)(=O)c1cccnc1 | – | 0.786
8 | COc1ccc(CN2CCC(CO)(Cc3ccc(Cl)cc3)CC2)cc1C | – | 0.045
9 | CN(CCc1ccccc1)C1(C(=O)N2CCNC(=O)CC2)Cc2ccccc2C1 | – | 0.656
10 | Cn1c(C2CCCO2)nc2cc(NC(=O)CC3CCCC3)cc(C(=O)NCCc3ccco3)c21 (stereo unspecified) | – | 0.837
11 | COc1cc(C(=O)NCc2nc(C)cs2)ccc1OC1CCN(C(C)=O)CC1 | 0.886 | –
12 | CCOC(=O)N1CCN(Cc2nc(NCc3cccs3)c3ccccc3n2)CC1 | – | 0.776
13 | CCOc1ccc(CN2CCN(Cc3ccc4nsnc4c3)CC2CCO)cc1 (stereo unspecified) | 0.846 | –
14 | O=C1NCCN1CCNC(=O)C1(N2CCCCC2)Cc2ccccc2C1 | – | 0.843
15 | CCS(=O)(=O)c1ncc(CN(C)CC2CCCCO2)n1CCc1ccccc1 (stereo unspecified) | – | 0.771
16 | COCCN1C(=O)CC(CC(=O)N(C)C(C)c2ccc(OC)cc2)(c2ccccc2OC)C1=O (stereo unspecified) | – | 0.939

Complete entries, quoted from the list. Values in the order: bacterial growth OD600 (polymyxin B 1 µg/mL) | bacterial growth OD600 (polymyxin B 0.75 µg/mL)
COc1ccc(CN2CCC(CO)(Cc3ccc(Cl)cc3)CC2)cc1C reads – | 0.045
COc1cc(C(=O)NCCc2ncccc2C)ccc1OC1CCN(C(C)=O)CC1 reads 0.946 | –

More entries.

Row | Structure (SMILES) | bacterial growth OD600 (polymyxin B 1 µg/mL) | bacterial growth OD600 (polymyxin B 0.75 µg/mL)
17 | CSc1ccccc1OCc1cc(C(=O)NC(C)Cn2cncn2)no1 (stereo unspecified) | 0.864 | –
18 | CCOc1ccc(CN2CCN(Cc3cccc(OCC)c3)CC2CCO)cc1 (stereo unspecified) | 0.873 | –
19 | CN(Cc1nc2ccccc2[nH]1)C(=O)Cn1nnnc1CN1CCc2ccccc2C1 | – | 0.816
20 | COc1cccc(CC2(CCC(=O)N3CCC(OCc4ccccc4)CC3)CCC(=O)N2)c1 (stereo unspecified) | – | 0.772
21 | CC(C)Cc1noc(-c2ccc(N3CCN(C)C(=O)[C@@H]3C)nc2)n1 | 0.95 | –
22 | c1ccc(CN(Cc2nc(-c3ccccc3)no2)CC2CC2)cc1 | 0.648 | –
23 | c1cnc(N2CCC(C3CCN(Cc4nccs4)C3)CC2)nc1 (stereo unspecified) | – | 0.803
24 | O=C(CCC1CCN(C(=O)C2(c3ccccc3)CCCCC2)CC1)NC1CC1 | 0.797 | –
25 | C=CCS(=O)(=O)N1CCC(C2CCN(Cc3cccnc3)CC2)C1 (stereo unspecified) | – | 0.832
26 | CCCn1cc(C(=O)NC2CCCN(CCc3ccccc3)C2)c(C)n1 (stereo unspecified) | 1.07 | –
27 | CC(C)CN(C)Cc1cnc(S(=O)(=O)CC2CC2)n1CC1CCCO1 (stereo unspecified) | – | 0.861
28 | Cc1c(C(C)NCCc2ccccc2)cnn1-c1ccccc1 (stereo unspecified) | – | 0.82
29 | COc1ccc(CC2(CCC(=O)NC3CCCCCC3)CCC(=O)N2)c2ccccc12 (stereo unspecified) | – | 0.649
30 | Cc1ncc(CNCc2cccnc2Oc2ccc(C)c(F)c2F)cn1 | 0.97 | –
31 | Cc1ccc(CC2(CCC(=O)N3CCCC(OCc4ccccc4)C3)CCC(=O)N2)cc1 (stereo unspecified) | – | 0.792
